PubChem BioAssay AID485353 (National Center for Advancing Translational Sciences (NCATS), 2010)
Out of some 330,000 compounds screened, about 610 (0.18%) were called active. The inconclusive results got no clear call from the source; some entries with a clear call stand among them for comparison. Calls follow the shape of the full dose curve. Where the call is inconclusive, the potency comes from a doubtful curve fit.

Experiment: qHTS of Yeast-based Assay for SARS-CoV PLP; also: nearly all actives have a fitted effect of over 55% in size; as to activity, positive = growth rescue: 0% is about no effect
Details: S. cerevisiae expressing SARS-CoV PLpro; Potency: growth rescue; activity, positive = growth rescue: at 32.9 µM (top of the series)
Potency is read from the fitted curve at half-maximal effect.

Structure (SMILES)	activity, positive = growth rescue	Potency
O=C1/C(=C\c2cccc(O)c2O)SC(=S)N1Cc1ccccc1	inactive: -8.91%	–
O=C(c1ccccc1NS(=O)(=O)c1ccc(F)cc1)N1CCc2ccccc21	–	inconclusive: 7.94 µM [activator, partial curve]
COc1cc(C2NC(=O)N(C)C(C)=C2C(=O)OCc2ccccc2)cc(Br)c1O (configuration not stated)	inactive: 5.73%	–
Cc1cc(O)c(C2=Nc3ccccc3SC(c3ccc(Cl)cc3)C2)c(=O)o1 (configuration not stated)	inactive: -7.67%	–
COc1cccc(CNC(=O)c2ccc(C(=O)NCc3cccc(OC)c3)cc2)c1	–	inconclusive: 3.98 µM [activator, single point]
CCS(=O)(=O)c1ccc(C(=O)Nc2cccc(Cl)c2)c(Cl)c1Cl	–	inconclusive: 0.398 µM [activator, full curve, poor fit]
O=c1[nH]c(Cc2ccc(F)cc2)nc2scc(-c3ccc(F)cc3)c12	–	inconclusive: 2.51 µM [activator, single point]
CCNC(=S)NNC(=O)C1CCCCC1	–	active: 3.98 µM
CCCc1nnc(SCC(=O)N2CCCCC2)n1CC1CCCO1 (configuration not stated)	–	inconclusive: 11.2 µM [activator, single point]
Cc1oc2ccc(OC(=O)N(C)C)cc2c1C(=O)OC(C)C	inactive: -39.8%	–
O=C(Cc1nnc(NC(=O)Nc2ccc(Cl)cc2)s1)NCc1ccccc1	–	inconclusive: 5.01 µM [activator, partial curve]
COc1ccccc1C(=O)NC(=S)Nc1ccc(NC(=O)c2cccs2)cc1	–	inconclusive: 20 µM [activator, single point]
COc1ccc(/C=N\NC(=O)COc2ccccc2)c(C(=O)O)c1OC	–	inconclusive: 22.4 µM [activator, single point]
Cc1cc(NC(=O)CSc2ncc(CO)n2Cc2ccc(F)cc2)no1	–	inconclusive: 12.6 µM [activator, single point]
CCCOc1ccc(C(=O)Nc2ccc(N3CCN(C(=O)c4ccco4)CC3)cc2)cc1	–	inconclusive: 20 µM [activator, single point]
CCSCCOC(=O)C1=C(C)NC(=O)NC1c1cc(OC)ccc1OC (configuration not stated)	–	inconclusive: 2.82 µM [activator, single point]
COc1ccc(/C=C2/C(=O)NC(=O)N(c3ccc(C)c(C)c3)C2=O)cc1CN1C(=O)c2ccccc2C1=O	–	inconclusive: 11.2 µM [activator, partial curve, poor fit]
O=C(COc1ncnc2c(Cl)cc(Cl)cc12)Nc1cc([N+](=O)[O-])ccc1Cl	–	inconclusive: 7.08 µM [activator, partial curve]
O=C(O)CCC(=O)Nc1ccccc1C(=O)NCCc1ccccc1	–	active: 3.98 µM
S=C(Nc1ccc(Oc2ccc(NC(=S)NC3CCCCC3)cc2)cc1)NC1CCCCC1	–	active: 11.2 µM
Cn1c(-c2ccc(-c3ccccc3)cc2)c[nH]c1=S	–	inconclusive: 12.6 µM [activator, partial curve]
COc1ccc(S(=O)(=O)N2CCCC2)cc1Br	–	inconclusive: 11.2 µM [activator, single point]
Cc1ccc(-c2cc(=O)c3cc(F)ccc3[nH]2)cc1	–	inconclusive: 3.55 µM [activator, single point]

Structure (SMILES)	activity, positive = growth rescue	Potency
COC(=O)c1sc(NC(=O)COc2ccccc2C)nc1C	inactive: -4.13%	–
N#C/C(=C\c1ccc2c(c1)OCCO2)C(=O)NC1CCCCC1	–	inconclusive: 2.51 µM [activator, partial curve]
CCOC(=O)C1CCCN(C(=O)CCNS(=O)(=O)c2cc(Br)cnc2N)C1 (configuration not stated)	–	inconclusive: 17.8 µM [activator, single point]
O=C(CN(c1cccc(C(F)(F)F)c1)S(=O)(=O)c1ccccc1)N1CCOCC1	–	inconclusive: 3.98 µM [activator, single point]
O=C(OC1CCCCC1=O)c1cc(S(=O)(=O)N2CCOCC2)ccc1F (configuration not stated)	–	inconclusive: 20 µM [activator, single point]
CC1=C(C(=O)Nc2ccc(F)cc2)C(c2ccncc2)C2=C(CCCC2=O)N1 (configuration not stated)	–	inconclusive: 22.4 µM [activator, single point]
Cc1csc2c(C#N)c(=O)c3c(n12)CCC3	–	inconclusive: 0.398 µM [activator, full curve]
O=C(Nc1nnc(C2COc3ccccc3O2)o1)c1ccc(F)cc1 (configuration not stated)	–	inconclusive: 10 µM [activator, single point]
CCOC(=O)c1[nH]c(C)c(C(=O)NCCCN2CCOCC2)c1C	–	inconclusive: 4.47 µM [activator, single point]
CCc1sc(N)nc1-c1ccccc1	–	inconclusive: 17.8 µM [activator, single point]
Cc1ccc(-c2csc3nc[nH]c(=S)c23)cc1	–	inconclusive: 22.4 µM [activator, single point]
O=C(NCc1cccnc1)c1ccc(Cl)c(S(=O)(=O)Nc2ccccc2C(=O)NCc2cccnc2)c1	–	inconclusive: 3.16 µM [activator, single point]
c1ccc(C2=Nc3cccc4cccc(c34)N2)cc1	–	inconclusive: 17.8 µM [activator, single point]
COc1ccccc1NC(=O)C1CCN(S(=O)(=O)c2ccc3c(c2)NC(=O)CO3)CC1	–	inconclusive: 4.47 µM [activator, single point]
Cc1ccc(NC(=S)Nc2cc(C(=O)O)ccc2N2CC3CC(C2)c2cccc(=O)n2C3)cc1C (configuration not stated)	–	inconclusive: 22.4 µM [activator, single point]
O=C(CSc1ncccn1)NC(=O)Nc1ccc2c(c1)OCCO2	inactive: -0.538%	–
CC(C)[C@@H]1CC[C@@H](C)c2c(-c3ccccc3)n[nH]c21	–	inconclusive: 20 µM [activator, single point]
CCN(CC)C(=O)Oc1cc2c(-c3cc4cccc(OC)c4o3)cc(=O)oc2cc1C	–	inconclusive: 0.398 µM [activator, full curve, poor fit]
Cc1cc2c(cc1S(=O)(=O)N(C)C1CCCCC1)OCC(=O)N2	–	inconclusive: 1.58 µM [activator, full curve]
CC(=O)c1sc(-c2ccc(Cl)cc2)cc1N	inactive: -2.4%	–
Cc1cc(OCc2cc(C(=O)N(C)CCCN3CCOCC3)no2)cc(C)c1Cl	–	inconclusive: 3.98 µM [activator, single point]
Oc1c(Br)cc(/C=N/n2c(-c3ccccc3)n[nH]c2=S)c(Br)c1O	–	inconclusive: 22.4 µM [activator, single point]
CCC(C(=O)NCc1ccccn1)n1c2ccccc2c2nc(=O)cc(C)n21 (configuration not stated)	–	inconclusive: 3.98 µM [activator, single point]

Structure (SMILES)	activity, positive = growth rescue	Potency
CCn1c(SCC(=O)c2cc(C)n(-c3ccc(C(=O)OC)cc3)c2C)nnc1-c1cccnc1	–	inconclusive: 20 µM [activator, single point]
CSc1ccccc1OCc1cc(C(=O)N(C)Cc2c(C)n[nH]c2C)no1	–	inconclusive: 3.98 µM [activator, single point]
CCCN(CC(=O)Nc1ccc(C)cc1Br)CC(=O)Nc1ccc(F)c(F)c1F	–	inconclusive: 3.98 µM [activator, single point]
COc1cc(/C=N/NC(N)=O)ccc1OCC(=O)N1C(C)CCCC1C (configuration not stated)	inactive: 1.07%	–
Cc1cc(C)n(C/C=C/Cn2nc(C)cc2C)n1	–	inconclusive: 4.47 µM [activator, single point]
CC(C)Cn1c(/C=C/c2ccccc2)nc2ccccc21	–	inconclusive: 4.47 µM [activator, single point]
c1cncc(-c2nc(NCc3ccco3)c3ccccc3n2)c1	–	inconclusive: 17.8 µM [activator, single point]
Cc1cccn2c(=O)c3cc(C(=O)NCCN4CCOCC4)c(=N)n(Cc4cccnc4)c3nc12	–	inconclusive: 4.47 µM [activator, single point]
CCOC(=O)COc1ccc(S(=O)(=O)N2CCN(c3ccccc3F)CC2)cc1	–	inconclusive: 20 µM [activator, single point]
Cc1cccc(NC(=S)NNc2ncc(C(F)(F)F)cc2Cl)c1	–	inconclusive: 12.6 µM [activator, partial curve, poor fit]
O=C(CCCN1C(=O)c2ccccc2C1=O)NCc1ccco1	–	inconclusive: 10 µM [activator, single point]
Cc1cc(C)c2nc(C)cc(Nc3ccc(C(=O)NCCO)cc3)c2c1	inactive: -0.474%	–
Cn1c(=O)n(C)c2cc(NC(=O)CCl)ccc21	–	active: 10 µM
CC(=O)Nc1ccc(NC(=O)CN(C)S(=O)(=O)c2ccc3ccccc3c2)cc1	inactive: -2.11%	–
CS(=O)(=O)N1CCN(c2ccc(NC(=O)c3ccc(-c4ccc(Cl)cc4)o3)cc2)CC1	–	inconclusive: 3.98 µM [activator, single point]
Cc1cccc(-n2c(O)c(/C=C/C=Nc3ccccc3)c(=O)[nH]c2=O)c1	inactive: 0.335%	–
CS(=O)(=O)N(CC(=O)Nc1ccccc1C(=O)N1CCCC1)c1ccccc1Br	–	inconclusive: 2.82 µM [activator, single point]
CC(C)(C)C1COc2ccccc2N1C(=O)c1cccc(Cl)c1 (configuration not stated)	inactive: -1.47%	–
O=C(O)c1ccc(S(=O)(=O)c2ccc3c(c2)C(=O)N(NC(=O)c2ccccc2)C3=O)cc1	inactive: -1.25%	–
CN(C)S(=O)(=O)N1CCC(Cc2ccccc2)CC1	–	inconclusive: 0.316 µM [activator, full curve, poor fit]
CC(=O)Oc1ccc(/C=N/NC(=S)Nc2ccccc2)cc1	–	inconclusive: 20 µM [activator, single point]

Reformatted: results already given
Structure (SMILES),"activity, positive = growth rescue",Potency
Cc1cc(NC(=O)CSc2ncc(CO)n2Cc2ccc(F)cc2)no1,–,"inconclusive: 12.6 µM [activator, single point]"
Cn1c(-c2ccc(-c3ccccc3)cc2)c[nH]c1=S,–,"inconclusive: 12.6 µM [activator, partial curve]"
COc1cc(/C=N/NC(N)=O)ccc1OCC(=O)N1C(C)CCCC1C (configuration not stated),inactive: 1.07%,–
